Source: patent US20210347821A1
Results are given in words; binding and its absence hold for the method and conditions named. Some binding calls cover weakened binding; strength is not graded here.

Chains of the proteins cited; added tags and fusions are not shown.
UniProt Q9EP80: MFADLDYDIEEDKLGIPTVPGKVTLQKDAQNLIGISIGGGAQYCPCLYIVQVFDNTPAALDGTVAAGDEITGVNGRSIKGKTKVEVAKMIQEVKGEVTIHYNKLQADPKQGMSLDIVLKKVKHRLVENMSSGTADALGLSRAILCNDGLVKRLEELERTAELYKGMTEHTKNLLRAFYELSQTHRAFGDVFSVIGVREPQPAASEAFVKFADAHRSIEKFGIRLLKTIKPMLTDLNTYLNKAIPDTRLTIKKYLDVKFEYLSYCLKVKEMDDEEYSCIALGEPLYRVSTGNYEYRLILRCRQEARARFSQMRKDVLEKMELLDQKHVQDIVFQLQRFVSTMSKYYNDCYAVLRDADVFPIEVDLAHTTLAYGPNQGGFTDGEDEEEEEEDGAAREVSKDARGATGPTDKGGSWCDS

Target: Protein Interacting with C Kinase-1 (PICK1), purified recombinant (UniProt Q9EP80)
Experiment: analytical size exclusion chromatography

binding: binds
Substance: Protein Interacting with C Kinase-1 (PICK1), purified recombinant (from UniProt Q9EP80 1-416)
